# According to the supplement of paper PMC9588766:
# What follows is the remainder of the data, with few or none of the lowest values.
# Test system: PDC-DUC18828
# Assay: cell viability of compound + 1 nM pemigatinib relative to pemigatinib-only (DMSO) wells (fraction); PDC-DUC18828 is a patient-derived cholangiocarcinoma cell line; higher = less growth inhibition
# Details: first compound 1 µM; pemigatinib concentration 1 nM; 72 h
# Experimental: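 Selleck Bioactive library screen in the patient-derived FGFR2 fusion-positive ICC cell line PDC-DUC18828 (500 cells/well). Each compound was tested at 1 uM with 1 nM pemigatinib, in triplicate, for 72 h. Viability was read by CellTiter-Glo and normalised to plate DMSO controls. Value is the paper's averaged normalised viability.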
row,SMILES,cell viability
1,CN1C2CCC1CC(OC(=O)C(O)c1ccccc1)C2 (centres undefined) [Homatropine Bromide] + CCN1C(=O)N(c2c(F)c(OC)cc(OC)c2F)Cc2cnc3[nH]c(CN4CCOCC4)cc3c21 [pemigatinib],0.878
2,Cc1ccccc1-n1c(Cn2nc(-c3cccc(O)c3)c3c(N)ncnc32)nc2cccc(C)c2c1=O + CCN1C(=O)N(c2c(F)c(OC)cc(OC)c2F)Cc2cnc3[nH]c(CN4CCOCC4)cc3c21 [pemigatinib],0.96
3,Cc1ccc(C(=O)NCCCCCC(=O)Nc2ccccc2N)cc1 + CCN1C(=O)N(c2c(F)c(OC)cc(OC)c2F)Cc2cnc3[nH]c(CN4CCOCC4)cc3c21 [pemigatinib],1.02
4,Cc1nc2c(-c3cnc(N)nc3)nc(N3CCOCC3)nc2n1C(C)C + CCN1C(=O)N(c2c(F)c(OC)cc(OC)c2F)Cc2cnc3[nH]c(CN4CCOCC4)cc3c21 [pemigatinib],0.242
